Laboratory results: PubChem BioAssay AID328 (DTP/NCI, 2004)
The list does not hold the whole screen: it is rich in T/C values a quarter to a half above the control, in often repeated tests (any T/C) and in doses without a T/C. Further doses and runs are listed elsewhere. T/C is the treated group as % of the vehicle group. Some doses have a count of surviving animals in place of a T/C: the source holds a T/C of zero for them, seemingly a mark for toxic or unscored doses. Some doses without a T/C left all or most animals alive at the check, yet need not have been tolerated: the source hardly ever lists a survival T/C far under the control, and the zero likely stands for such cases as well. Survivors were counted at the toxicity check, usually on the fifth day, unless a day is given; later deaths do not show. Schedule codes are those of the source, read here as Q, the interval in days (D) or hours (H), X, the number of doses. For survival time, the PubChem record calls one and a half times the control and up active, and a quarter to a half above the control has no call in these data; cut-offs in other NCI protocols can differ. Some entries were tested several times; the results are listed from low to high.

System: BDF1 mice, P388 leukemia ip, median survival T/C
Assay: NCI In Vivo Anticancer Drug Screen. Data for tumor model P388 Leukemia (intraperitoneal) in B6D2F1 (BDF1) mice
Details: T/C endpoint: median survival time, higher T/C = longer survival
How it was run: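 Compound-treated tumour-bearing mice were compared with vehicle-treated controls. Survival was recorded, and the value is the treated-group measurement divided by the control-group measurement (T/C).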

[1] = dose: 200.0 mg/kg/injection, schedule: Q01DX009 (ip), vehicle: Klucel (hydroxypropylcellulose) (HPC)
[2] = dose: 200.0 mg/kg/injection, schedule: Q04DX003 (ip), vehicle: saline
[3] = dose: 300.0 mg/kg/injection, schedule: Q01DX009 (ip), vehicle: Klucel (hydroxypropylcellulose) (HPC)

Compound: O=C1N(Br)C(=O)C(c2ccc(Cl)cc2)(c2ccc(Cl)cc2)N1Br
- T/C (dose: 25.0 mg/kg/injection, schedule: Q01DX009 (ip), vehicle: saline with Tween-80): 131 % of control
- T/C (dose: 100.0 mg/kg/injection, schedule: Q01DX009 (ip), vehicle: Klucel (hydroxypropylcellulose) (HPC)): 141 % of control
- T/C (dose: 130.0 mg/kg/injection, schedule: Q01DX003 (ip), vehicle: Klucel (hydroxypropylcellulose) (HPC)): 136 % of control
- T/C [1]: 141 % of control
- survivor count [1]: 3 of 6
- T/C [2]: 125 % of control
- survivor count (dose: 300.0 mg/kg/injection, schedule: Q01DX003 (ip), vehicle: Klucel (hydroxypropylcellulose) (HPC)): 3 of 6
- survivor count [3]: 0 of 6
- survivor count (dose: 300.0 mg/kg/injection, schedule: Q04DX003 (ip), vehicle: Klucel (hydroxypropylcellulose) (HPC)): 6 of 6
- survivor count (dose: 400.0 mg/kg/injection, schedule: Q01DX009 (ip), vehicle: Klucel (hydroxypropylcellulose) (HPC)): 0 of 6
- survivor count (dose: 400.0 mg/kg/injection, schedule: Q04DX003 (ip), vehicle: saline sonified): 4 of 6

Compound: CC(=O)OCC(=O)[C@@]1(O)CC[C@H]2[C@@H]3CCC4=CC(=O)C=C[C@]4(C)[C@H]3[C@@H](O)C[C@@]21C
- survivor count (dose: 100.0 mg/kg/injection, schedule: Q01DX009 (ip), vehicle: saline): 6 of 6
- survivor count [2]: 5 of 6
- survivor count (dose: 400.0 mg/kg/injection, schedule: Q04DX003 (ip), vehicle: saline): 4 of 6

Compound: CC(C)CCOC(=O)C(Br)c1ccccc1 (configuration not stated)
- T/C (dose: 100.0 mg/kg/injection, schedule: Q01DX009 (ip), vehicle: saline with Tween-80): 138 and 145 % of control
- T/C (dose: 200.0 mg/kg/injection, schedule: Q01DX009 (ip), vehicle: saline with Tween-80): 145 % of control
- survivor count (dose: 400.0 mg/kg/injection, schedule: Q01DX009 (ip), vehicle: saline with Tween-80): 6 of 6

Compound: CCOC(=O)C(N)C[S][Sn]([CH3])([CH3])[Cl] (configuration not stated)
- T/C (dose: 25.0 mg/kg/injection, schedule: Q01DX009 (ip), vehicle: saline): 127 % of control
- T/C (dose: 50.0 mg/kg/injection, schedule: Q01DX009 (ip), vehicle: saline): 142 % of control

Compound: NS(=O)(=O)CS(=O)(=O)Oc1ccccc1
- survivor count (dose: 400.0 mg/kg/injection, schedule: Q01DX001 (ip), vehicle: saline with Tween-80): 1 of 6

Compound: c1cncc(-c2ncnc3c2Cc2ccccc2-3)c1
- survivor count [3]: 1 of 6

Compound: CCOC(=O)c1c(NC(=O)C(F)(F)F)[nH]c(SSc2[nH]c(NC(=O)C(F)(F)F)c(C(=O)OCC)c2C(=O)OCC)c1C(=O)OCC
- survivor count (dose: 300.0 mg/kg/injection, schedule: Q04DX003 (ip), vehicle: saline with Tween-80): 2 of 6
